These are yes or no findings as the source states them, for the method shown. Binding seen in cells or lysates may run through a third protein. Some binding calls cover weakened binding; strength is not graded here. For some assays here: Where a sequence is shown, tags or fusion partners need not be part of it.
Columns and labels:
[1] = biological target: active form of RhoA (GTP-RhoA) (human (endogenous in 16HBE)) (UniProt P61586); assay: pull-down; GST-Rhotekin RBD-coated beads (EZ-Detect RhoA Activation Kit) capture GTP-RhoA from lysates of 16HBE cells transfected with Flag-ROCK2(WT or K1007R); ROCK2 found with it by western blot
[2] = biological target: T1, Flag-ROCK2(K1007R) (human) (UniProt O75116); assay: co-IP; Flag antibody and protein A/G agarose overnight at 4 °C; RIPA lysates of 16HBE cells transfected with HA-RhoA and Flag-ROCK2(WT or K1007R), with or without IL-13 for 6 h; blotted with HA antibody
T1 sequence: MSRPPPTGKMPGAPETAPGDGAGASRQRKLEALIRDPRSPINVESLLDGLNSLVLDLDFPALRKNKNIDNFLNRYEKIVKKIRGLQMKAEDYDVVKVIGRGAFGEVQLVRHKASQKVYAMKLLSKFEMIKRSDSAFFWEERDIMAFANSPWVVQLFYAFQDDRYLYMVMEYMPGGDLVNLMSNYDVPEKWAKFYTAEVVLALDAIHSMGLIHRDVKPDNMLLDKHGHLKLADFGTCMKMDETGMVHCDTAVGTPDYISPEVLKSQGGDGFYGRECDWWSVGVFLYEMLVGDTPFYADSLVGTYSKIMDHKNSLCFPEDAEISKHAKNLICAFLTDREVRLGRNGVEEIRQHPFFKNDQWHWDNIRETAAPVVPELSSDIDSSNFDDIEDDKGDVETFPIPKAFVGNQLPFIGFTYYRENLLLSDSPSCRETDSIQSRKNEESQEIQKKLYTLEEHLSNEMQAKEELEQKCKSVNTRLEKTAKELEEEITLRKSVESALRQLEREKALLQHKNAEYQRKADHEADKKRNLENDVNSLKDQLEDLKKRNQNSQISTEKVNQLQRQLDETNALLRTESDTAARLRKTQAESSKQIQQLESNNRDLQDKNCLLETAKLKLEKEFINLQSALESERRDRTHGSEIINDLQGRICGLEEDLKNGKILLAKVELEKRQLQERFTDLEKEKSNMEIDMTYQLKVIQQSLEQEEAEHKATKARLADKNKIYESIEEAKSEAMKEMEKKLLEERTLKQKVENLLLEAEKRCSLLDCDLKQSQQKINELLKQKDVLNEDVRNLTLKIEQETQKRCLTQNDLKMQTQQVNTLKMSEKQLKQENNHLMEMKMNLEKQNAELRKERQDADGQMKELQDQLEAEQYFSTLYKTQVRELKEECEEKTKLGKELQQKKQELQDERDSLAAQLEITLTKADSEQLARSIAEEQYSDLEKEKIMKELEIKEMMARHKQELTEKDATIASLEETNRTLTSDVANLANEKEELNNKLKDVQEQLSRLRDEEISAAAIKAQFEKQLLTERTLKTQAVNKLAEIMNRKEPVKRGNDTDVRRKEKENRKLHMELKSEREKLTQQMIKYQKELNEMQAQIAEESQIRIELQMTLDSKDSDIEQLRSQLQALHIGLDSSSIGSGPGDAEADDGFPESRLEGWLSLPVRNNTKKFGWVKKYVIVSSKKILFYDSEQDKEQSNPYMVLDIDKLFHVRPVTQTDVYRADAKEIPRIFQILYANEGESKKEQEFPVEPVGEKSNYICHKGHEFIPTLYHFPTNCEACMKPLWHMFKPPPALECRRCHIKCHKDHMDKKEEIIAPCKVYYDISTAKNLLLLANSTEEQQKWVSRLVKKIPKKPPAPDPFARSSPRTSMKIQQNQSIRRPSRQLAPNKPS

By UniProt entry, the sequences of proteins in these tests, tags left out.
UniProt P61586: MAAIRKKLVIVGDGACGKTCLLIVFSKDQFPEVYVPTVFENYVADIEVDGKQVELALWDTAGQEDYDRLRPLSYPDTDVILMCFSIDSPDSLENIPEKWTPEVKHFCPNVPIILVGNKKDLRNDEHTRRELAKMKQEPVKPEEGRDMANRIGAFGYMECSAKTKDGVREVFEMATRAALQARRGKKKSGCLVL
UniProt O75925: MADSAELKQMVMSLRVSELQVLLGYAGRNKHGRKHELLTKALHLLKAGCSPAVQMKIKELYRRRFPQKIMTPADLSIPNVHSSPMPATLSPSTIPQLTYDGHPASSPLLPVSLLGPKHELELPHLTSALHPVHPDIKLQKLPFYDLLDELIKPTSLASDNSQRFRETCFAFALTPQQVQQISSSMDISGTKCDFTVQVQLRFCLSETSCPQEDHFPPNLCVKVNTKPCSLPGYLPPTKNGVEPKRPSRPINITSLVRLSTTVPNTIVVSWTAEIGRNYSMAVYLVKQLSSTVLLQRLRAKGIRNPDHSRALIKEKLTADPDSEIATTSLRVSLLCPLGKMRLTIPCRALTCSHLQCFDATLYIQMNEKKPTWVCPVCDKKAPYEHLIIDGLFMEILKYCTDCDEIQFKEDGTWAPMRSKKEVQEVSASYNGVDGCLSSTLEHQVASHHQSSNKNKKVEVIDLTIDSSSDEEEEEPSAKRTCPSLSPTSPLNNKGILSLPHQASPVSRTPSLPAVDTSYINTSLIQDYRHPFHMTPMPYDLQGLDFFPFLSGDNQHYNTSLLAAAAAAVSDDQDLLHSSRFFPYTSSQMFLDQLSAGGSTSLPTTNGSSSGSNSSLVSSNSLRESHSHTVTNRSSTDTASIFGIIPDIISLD

[3] = biological target: Flag-ROCK2(WT) (Rho-associated protein kinase 2, wild type) (human) (UniProt O75116); assay: as above
[4] = biological target: T1, Flag-ROCK2(K1007R) (human); assay: co-IP; Flag antibody and protein A/G agarose overnight at 4 °C; RIPA lysates of 293T cells 48 h after transfection with Myc-PIAS1 and Flag-ROCK2(WT or K1007R)
[5] = biological target: Flag-ROCK2(WT) (Rho-associated protein kinase 2, wild type) (human) (UniProt O75116); assay: as above

Flag-ROCK2(WT) (Rho-associated protein kinase 2, wild type) (from UniProt O75116 1-1388) (enzyme)
binding [1]: binds

HA-RhoA (from UniProt P61586 1-193)
binding [2]: binds weakly | binding [3]: binds

Myc-PIAS1 (protein inhibitor of activated STAT 1, SUMO E3 ligase) (from UniProt O75925 1-651) (enzyme)
binding [4]: binds | binding [5]: binds

From paper PMC10314948
